Results from patent US20240409647A1, “BISPECIFIC BINDING PROTEINS AGAINST ALARMINS AND USES THEREOF” (SINOMAB BIOSCIENCE LIMITED, priority 2022, published 2024).
No constants are given. Whether binding was seen depends on the method and setting. A result given as binding can be weak or reduced; the word gives no strength.

What was measured:
[1] = biological target: human IL-17RB protein (recombinant, R&D systems) (human); assay: ELISA, coated IL-17RB
[2] = biological target: human IL-17RB protein (recombinant, R&D systems) (human); assay: ELISA, coated antigen 2 µg/mL, binder at 33.5 nM

binding [1]: binds | binding [2]: binds
B1: SM17 (antibody, human IgG4 S228P, kappa, V domains shown)
VH: QVQLVQSGAEVKKPGASVKVSCKASGYTFISYWMNWVRQAPGQGLEWMGRIDPYDSEIQYNQKFKDRVTMTRDTSISTAYMELSRLRSDDTAVYYCARSGGFDWFAYWGQGTLVTVSS
VL: DIQMTQSPSSLSASVGDRVTITCRASENINSNLAWYQQKPGKAPKLLLYDVTNLADGVPSRFSGSGSGTDYTLTISSLQPEDFATYYCQHFWGPPYTFGGGTKVEIKR
